Assay results: the supplement of paper PMC3334620
The full ranking holds about 33,000 sequences; the median of “E-score (-0.5 to 0.5)” is about -0.0034, and the highest 2% start at about 0.25. The list shows a part of the results.

Biological target: T1, Yap3 (UniProt P38749)
T1 sequence: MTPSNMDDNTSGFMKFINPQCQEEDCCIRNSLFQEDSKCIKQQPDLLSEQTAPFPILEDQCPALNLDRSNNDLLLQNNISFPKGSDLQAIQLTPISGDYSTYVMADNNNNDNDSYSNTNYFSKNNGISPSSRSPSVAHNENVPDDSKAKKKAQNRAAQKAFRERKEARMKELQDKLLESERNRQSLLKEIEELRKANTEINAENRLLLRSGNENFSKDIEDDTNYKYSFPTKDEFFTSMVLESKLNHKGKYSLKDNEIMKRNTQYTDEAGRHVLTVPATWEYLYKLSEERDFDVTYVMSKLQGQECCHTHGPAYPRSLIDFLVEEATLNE
Test: PBM E-score (8-mer binding enrichment) (E-score (-0.5 to 0.5)); higher = stronger / more preferred TF binding
Conditions: protein concentration: 100 nM; construct: GST-full length
In short: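 Yeast transcription factors, full-length or as DNA-binding domains, were expressed with a GST tag using PURExpress in vitro transcription/translation. At about 100-200 nM they were applied to universal all-10-mer Agilent arrays, double-stranded by primer extension on fresh or once-stripped slides. Fluorescent anti-GST detected bound protein, and masliner normalised the scans. E-scores for ungapped eight-base words, pooled with reverse complements, came from the Universal PBM Analysis Suite.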

Sequence | PBM E-score
TGCACACA | -0.0748
ATGGAAGG | -0.139
GATCCGTA | -0.126
CCTTGAGC | -0.0442
ACTGTCAT | 0.0728
AGATTTAC | 0.161
GAACCTGC | -0.162
AAGCCGTC | 0.00506
ATGGTACC | 0.0191
GGAGAGAA | -0.0298
AAACAGGC | -0.13
AAGAACAA | 0.267
ATGAAGAG | 0.145
GTTCAAAC | 0.0634
AGTGGCAC | -0.0705
CGGTAACC | -0.182
ACAGTCAT | -0.0786
AACAGTCA | 0.104
ACCGCTCC | -0.178
ATGACTCA | 0.185
CTTCGAAA | 0.0423
AAGTGAGG | -0.0879
ATCTACGC | 0.0991
CAAGAATA | 0.144

Shown as a markdown table: entries from further up.

| Sequence | PBM E-score |
| --- | --- |
| TGCACACA | -0.0748 |
| ATGGAAGG | -0.139 |
| GATCCGTA | -0.126 |
| CCTTGAGC | -0.0442 |
| ACTGTCAT | 0.0728 |
| AGATTTAC | 0.161 |

Remaining list, next part:

Sequence | PBM E-score
CCCTACCG | -0.205
CATACTGC | -0.133
CAGGCGGG | -0.132
TGGTAGAA | -0.0125
TAAAAGAA | 0.186
CAGCACAG | 0.0268
AGATCCGC | -0.132
ATGCCAAC | 0.074
CAACGATA | 0.0838
AAATCTAG | 0.0113
GCGACTGA | -0.119
GTGTTAGA | 0.133
AGGAGTCG | -0.128
GAACAATA | 0.142
CACAGCGG | -0.0949
AATAGGGA | -0.0992
GCTGGCAA | 0.0911
ATTAGTGC | 0.299
TCAGGCGA | -0.0657
ACCCGCAA | -0.239
ACTTGTTA | 0.13
CGAACCTA | -0.019
CTCACGCA | 0.233
CCTGGATC | -0.131

Sequence | PBM E-score
CTGCGCAG | -0.232
ATCTTCTC | 0.0857
CCATGCCC | -0.24
CTGGGCCA | -0.355
ATTATAAC | 0.118
GTGAGATA | 0.0843
AGAATGTG | 0.0491
CCTGCCCG | -0.105
CGTACAAA | 0.108
CACGCCAG | -0.23
AGACTAAA | 0.0718
CTTTACCA | 0.0597
CCGTGCCG | -0.124
ATCCGAGC | -0.0401
CCACGAAG | -0.199
CCGTCGCG | 0.0551
AGGAAGAT | 0.13
GAGAAGAC | -0.0447
AAATTTGT | 0.17
ATTCCGTG | 0.00947
ACTATCTA | 0.112
CAGAAGAG | -0.223
GTTCGGGA | 0.0952
CCGAGAGG | -0.18

Sequence | PBM E-score
GAGCAAGA | -0.0492
CAGCCTCG | -0.0218
GGTGTTTA | 0.0984
ACATTCGA | 0.0603
ATAATAAT | 0.26
AGCAGGAT | 0.0353
ACCCCCGC | -0.249
CGCTCAAC | -0.0371
AGCCGGGC | -0.316
GGGATATA | 0.0741
GAACAGAC | 0.0459
GTTGGGAA | 0.014
AAACCTTG | -0.0379
TCCATCAA | 0.0742
GGAGGTGA | -0.069
ACTGGTCC | -0.136
CGTAGGAG | -0.179
CACGTCAG | 0.00064
ATAACTAA | 0.162
ATGTTTAC | 0.0808
AAGTATCT | 0.00464
GCGCAGAA | 0.117
